Results published in article PMC5862903.
These are yes or no findings as the source states them, for the method shown. A result given as binding can be weak or reduced; the word gives no strength.

What was measured:
Assay in all cases: ELISA; plates coated with 0.5 ug of recombinant receptor (CAD, APN1 or ALP); Cyt1Aa or hybrid-Cyt1Aa at 50 nM (methods; the legend of Figure 4 says 100 nM) in PBST, 1 h at 37 C; detected with rabbit anti-Cyt1A and anti-rabbit HRP; both purified
[1] = molecular target: Manduca sexta CR12 CAD fragment corresponding to cadherin repeat 12 (CAD-CR12) (Manduca sexta)
[2] = molecular target: Manduca sexta aminopeptidase N 1 (APN1), recombinant (Manduca sexta)
[3] = molecular target: Manduca sexta alkaline phosphatase (ALP), recombinant (Manduca sexta)

Measured: binding

B1: CytL3-Loop7 (Cyt1Aa-loop3 hybrid toxin, Cry1Ab domain II loop3 inserted in loop7 of Cyt1Aa) (protein, UniProt P0A382 1-151; P0A382 152-249)
chain: MENLNHCPLEDIKVNPWKTPQSTARVITLRVEDPNEINNLLSINEIDNPNYILQAIMLANAFQNALVPTSTDFGDALRFSMPKGLEIANTITPMGAVVSYVDQNVTQTNNQVSVMINKVLEVLKTVLGVALSGSVIDQLTAAVTNTFTNLNFRSGFSNSSVSITQKNEAWIFWGKETANQTNYTYNVLFAIQNAQTGGVMYCVPVGFEIKVSAVKEQVLFFTIQDSASYNVNIQSLKFAQPLVSSSQYPIADLTSAINGTL
binds: all assays above

B2: CytL3-Loop6 (Cyt1Aa-loop3 hybrid toxin, Cry1Ab domain II loop3 inserted in loop6 of Cyt1Aa) (protein, UniProt P0A382 1-138; P0A382 139-249)
chain: MENLNHCPLEDIKVNPWKTPQSTARVITLRVEDPNEINNLLSINEIDNPNYILQAIMLANAFQNALVPTSTDFGDALRFSMPKGLEIANTITPMGAVVSYVDQNVTQTNNQVSVMINKVLEVLKTVLGVALSGSVIDQFRSGFSNSSVSILTAAVTNTFTNLNTQKNEAWIFWGKETANQTNYTYNVLFAIQNAQTGGVMYCVPVGFEIKVSAVKEQVLFFTIQDSASYNVNIQSLKFAQPLVSSSQYPIADLTSAINGTL
binds: all assays above

B3: CytL3-Loop9 (Cyt1Aa-loop3 hybrid toxin, Cry1Ab domain II loop3 inserted in loop9 of Cyt1Aa) (protein, UniProt P0A382 1-167; P0A382 168-249)
chain: MENLNHCPLEDIKVNPWKTPQSTARVITLRVEDPNEINNLLSINEIDNPNYILQAIMLANAFQNALVPTSTDFGDALRFSMPKGLEIANTITPMGAVVSYVDQNVTQTNNQVSVMINKVLEVLKTVLGVALSGSVIDQLTAAVTNTFTNLNTQKNEAWIFWGKETANFRSGFSNSSVSIQTNYTYNVLFAIQNAQTGGVMYCVPVGFEIKVSAVKEQVLFFTIQDSASYNVNIQSLKFAQPLVSSSQYPIADLTSAINGTL
binds: all assays above
